# Substitutions are numbered along the chain they refer to. The list shows a part of the results. At the low end of the ranking the order means little.
# Assays:
# Settings in all cases: yeast three-hybrid, YBZ-1, SC-Leu-His + 0.5 mM 3-AT, 4 days
# [1] = biological target: T1, PUM1 PUF domain R4-DRC N971D + H972R + Q975C (UniProt Q14671)
# T1 sequence: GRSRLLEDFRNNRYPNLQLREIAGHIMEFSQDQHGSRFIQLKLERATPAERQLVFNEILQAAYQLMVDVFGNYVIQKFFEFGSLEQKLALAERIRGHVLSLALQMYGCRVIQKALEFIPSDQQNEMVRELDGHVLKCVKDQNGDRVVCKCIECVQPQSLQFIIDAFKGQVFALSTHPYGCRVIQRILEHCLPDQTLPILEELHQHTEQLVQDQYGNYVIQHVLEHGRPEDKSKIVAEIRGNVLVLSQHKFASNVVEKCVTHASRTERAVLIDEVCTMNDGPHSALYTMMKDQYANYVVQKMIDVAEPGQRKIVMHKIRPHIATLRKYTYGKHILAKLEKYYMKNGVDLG
# [2] = biological target: T2, PUM1 PUF domain R4-EYI N971E + H972Y + Q975I (UniProt Q14671)
# T2 sequence: T1 sequence with D144E, R145Y, C148I
# [3] = biological target: T3, PUM1 PUF domain R4-GPY N971G + H972P + Q975Y (UniProt Q14671)
# T3 sequence: T1 sequence with D144G, R145P, C148Y
# [4] = biological target: T4, PUM1 PUF domain R4-GWY N971G + H972W + Q975Y (UniProt Q14671)
# T4 sequence: T1 sequence with D144G, R145W, C148Y
# [5] = biological target: T5, PUM1 PUF domain R4-LGC N971L + H972G + Q975C (UniProt Q14671)
# T5 sequence: T1 sequence with D144L, R145G
# [6] = biological target: T6, PUM1 PUF domain R4-LGM N971L + H972G + Q975M (UniProt Q14671)
# T6 sequence: T1 sequence with D144L, R145G, C148M
# [7] = biological target: T7, PUM1 PUF domain R4-MLC N971M + H972L + Q975C (UniProt Q14671)
# T7 sequence: T1 sequence with D144M, R145L
# [8] = biological target: T8, PUM1 PUF domain R4-MNA N971M + H972N + Q975A (UniProt Q14671)
# T8 sequence: T1 sequence with D144M, R145N, C148A
# [9] = biological target: T9, PUM1 PUF domain R4-PYF N971P + H972Y + Q975F (UniProt Q14671)
# T9 sequence: T1 sequence with D144P, R145Y, C148F
# [10] = biological target: T10, PUM1 PUF domain R4-RIF N971R + H972I + Q975F (UniProt Q14671)
# T10 sequence: T1 sequence with D144R, R145I, C148F
# [11] = biological target: T11, PUM1 PUF domain R4-RIY N971R + H972I + Q975Y (UniProt Q14671)
# T11 sequence: T1 sequence with D144R, R145I, C148Y
# [12] = biological target: T12, PUM1 PUF domain R4-RLF N971R + H972L + Q975F (UniProt Q14671)
# T12 sequence: T1 sequence with D144R, R145L, C148F
# [13] = biological target: T13, PUM1 PUF domain R4-RRY N971R + H972R + Q975Y (UniProt Q14671)
# T13 sequence: T1 sequence with D144R, C148Y
# [14] = biological target: T14, PUM1 PUF domain R4-RVY N971R + H972V + Q975Y (UniProt Q14671)
# T14 sequence: T1 sequence with D144R, R145V, C148Y
# [15] = biological target: T15, PUM1 PUF domain R4-SIG N971S + H972I + Q975G (UniProt Q14671)
# T15 sequence: T1 sequence with D144S, R145I, C148G
# [16] = biological target: T16, PUM1 PUF domain R4-SLY N971S + H972L + Q975Y (UniProt Q14671)
# T16 sequence: T1 sequence with D144S, R145L, C148Y
# [17] = biological target: T17, PUM1 PUF domain R4-SMT N971S + H972M + Q975T (UniProt Q14671)
# T17 sequence: T1 sequence with D144S, R145M, C148T
# [18] = biological target: T18, PUM1 PUF domain R4-VGY N971V + H972G + Q975Y (UniProt Q14671)
# T18 sequence: T1 sequence with D144V, R145G, C148Y
# [19] = biological target: T19, PUM1 PUF domain R4-VLY N971V + H972L + Q975Y (UniProt Q14671)
# T19 sequence: T1 sequence with D144V, R145L, C148Y
# [20] = biological target: T20, PUM1 PUF domain R4-VSL N971V + H972S + Q975L (UniProt Q14671)
# T20 sequence: T1 sequence with D144V, R145S, C148L
sequence,measurement,setting,value
GGCUAGAACUAGUGGAUCCCCCGGCGCCCGGCGGCUCGAGCCCGGGUAAGUGUACAUAGUCUGCAUGCCGCCGGGCGCCAUGCCUGCAGGUCGACUCUAGAAAACAUG,binding signal (log2 enrichment (interaction score)),[1],< -7.23
same,binding signal (log2 enrichment (interaction score)),[2],< -6.17
same,binding signal (log2 enrichment (interaction score)),[3],< -6.88
same,binding signal (log2 enrichment (interaction score)),[4],< -4.78
same,binding signal (log2 enrichment (interaction score)),[5],< -7.99
same,binding signal (log2 enrichment (interaction score)),[6],< -6.85
same,binding signal (log2 enrichment (interaction score)),[7],< -6.97
same,binding signal (log2 enrichment (interaction score)),[8],< -6.74
same,binding signal (log2 enrichment (interaction score)),[9],< -4.83
same,binding signal (log2 enrichment (interaction score)),[10],< -5.01
same,binding signal (log2 enrichment (interaction score)),[11],-5.54
same,binding signal (log2 enrichment (interaction score)),[12],< -7.23
same,binding signal (log2 enrichment (interaction score)),[13],< -6.41
same,binding signal (log2 enrichment (interaction score)),[14],< -5.75
same,binding signal (log2 enrichment (interaction score)),[15],< -7.16
same,binding signal (log2 enrichment (interaction score)),[16],< -7.4
same,binding signal (log2 enrichment (interaction score)),[17],< -5.38
same,binding signal (log2 enrichment (interaction score)),[18],< -6.93
same,binding signal (log2 enrichment (interaction score)),[19],< -7.45
same,binding signal (log2 enrichment (interaction score)),[20],< -7.85

# As a working copy, part of the list above:
sequence,measurement,setting,value
GGCUAGAACUAGUGGAUCCCCCGGCGCCCGGCGGCUCGAGCCCGGGUAAGUGUACAUAGUCUGCAUGCCGCCGGGCGCCAUGCCUGCAGGUCGACUCUAGAAAACAUG,binding signal (log2 enrichment (interaction score)),[10],< -5.01
same,binding signal (log2 enrichment (interaction score)),[11],-5.54
